Experimental data from US20200061054A1, “USE OF DIANHYDROGALACTITOL OR ANALOGS AND DERIVATIVES IN COMBINATION WITH A P53 MODULATOR OR A PARP INHIBITOR” (Del Mar Pharmaceuticals (BC) Ltd., priority 2017, published 2020).
For part of these data: For at least one compound, name, drawing or mass did not settle the structure. Some results were stated once for a whole list of compounds, not compound by compound. Some compounds share one range, which may span the group rather than tell each member.

Assays:
A2780 cells = assay: 5-day MTT cytotoxic assay, combination of VAL-083 with non-DNA targeting agents (p53 modulators); format: cell-based; conditions: A2780 (wild-type p53), agent combined with VAL-083, FIGS. 3-5
Text: Additive effect of [drug A+drug B]=FaA+(1−FaA)FaB
where FaA or FaB=fraction of cells affected (Fa) by drug A or B alone. Data, where appropriate, are provided as Mean±SE of N=3 or greater.

[1] = test system: A2780 cells with BRCA1 knockdown; assay: 5-day MTT cytotoxicity, VAL-083 and/or PARP inhibitor, BRCA1-siRNA treated cells; conditions: BRCA1-siRNA treated cells (~90% BRCA1 kd), combination of VAL-083 with PARP inhibitor
[2] = test system: Ovarian A2780 tumor cells; assay: 5-day MTT cytotoxicity, VAL-083 and/or PARP inhibitor, control siRNA cells (no BRCA1 kd); format: cell-based; conditions: combination of VAL-083 with PARP inhibitor, each at about 20-25% Fa concentration

SMILES | superadditivity / synergy in combination with VAL-083 (in words) (A2780 cells) | increase in activity above that predicted for simple additivity [1] | increase in activity above that predicted for simple additivity [2]
CC(=O)c1c(C)c2cnc(Nc3ccc(N4CCNCC4)cn3)nc2n(C2CCCC2)c1=O [palbociclib] | did not result in superadditive activity |  | 
CNCc1ccc(-c2[nH]c3cc(F)cc4c3c2CCNC4=O)cc1 [Rucaparib, rucaparib] |  | 9-13% | 
Cn1ncnc1[C@H]1c2n[nH]c(=O)c3cc(F)cc(c23)N[C@@H]1c1ccc(F)cc1 [Talazoparib, talazoparib] |  | 9-13% | 13-24%
O=C(c1cc(Cc2n[nH]c(=O)c3ccccc23)ccc1F)N1CCN(C(=O)C2CC2)CC1 [Olaparib, olaparib] |  | 9-13% | 13-24%
